Where two headings read alike, the source gives them in different places. Results are given in words; binding and its absence hold for the method and conditions named. Binding seen in cells or lysates may run through a third protein. These calls come from enrichment with a bait or labelling near it, and not all partners need be listed. Where a sequence is shown, tags or fusion partners need not be part of it.

Consider nine molecules from PMC10733382.

The target of assay [1] is T1, FLAG-MTFP1 (Mitochondrial Fission Process 1 protein) (UniProt Q9CRB8).
T1 sequence: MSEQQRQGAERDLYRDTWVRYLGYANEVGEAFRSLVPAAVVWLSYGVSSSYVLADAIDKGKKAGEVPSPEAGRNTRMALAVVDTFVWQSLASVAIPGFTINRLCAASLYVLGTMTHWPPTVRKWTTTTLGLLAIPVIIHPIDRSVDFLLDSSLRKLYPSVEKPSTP
In words: affinity purification with mass spectrometry; 500 ug liver mitochondria of Hepatocyte^FLAG-MTFP1 and control mice lysed in IP buffer (20 mM HEPES-KOH pH 7.5, 150 mM NaCl, 0.25% Triton X-100), anti-FLAG magnetic beads 2 h at 4 °C, eluates analysed by LC-MS/MS.

In assay [2] the target is T1, FLAG-MTFP1 (Mitochondrial Fission Process 1 protein). The assay is described as above. The source holds these as a separate data set.

In the case of MRPL43 (mouse (endogenous in liver)), in assay [1], the binding result is “binds”.

B1: RARS2 (protein, UniProt Q3U186 17-578)
chain: LALPPESLIKSISAVPVSKKEEVADFQLSVDSLLEDNNHKSQVDTQDQARRLAEKLKCDTVVTAISAGPRTLNFKINRELLTKAVLQQVTEDGCKYGLKSELFSDLPKKRIVVEFSSPNIAKKFHVGHLRSTIIGNFIANLKEALGHQVTRINYIGDWGMQFGLLGTGFQLFGYEEKLQTNPLQHLFDVYVQVNKEATDDKNVTKLAHEFFHRLEMGDTQALSLWQRFRDLSIEEYTQIYKRLGIYFDEYSGESFYREKSQDVLKLLDSKGLLQKTAEGNVVVDLSGTGDLSSVCTVMRSDGTSLYATRDLAAAIHRMDKYNFDTMIYVADKGQRRHFQQVFQMLKIMGYDWAERCQHVPFGIVKGMKTRRGGVTFLEDVLNEVQSRMLQNMASIKTTKQLENPQETAERVGLAAVIIQDFRGTLLSDYQFSWDRVFQSRGDTGVFLQYTHARLCSLEETFGCGYLNDSNVACLQEPQSVSILQHLLRFDEVLYLSSQDLQPKHIVSYLLTLSHLAAVAHKTLQVKDSPPDVAGARLHLFKAVRSVLANGMKLLGITPVCRM
As for B1, in assay [2], the binding result is reported as “binds”.

B2: SLC25A15 (protein, UniProt Q9WVD5 1-301)
chain: MKSNPAIQAAIDLTAGAAGGTACVLTGQPFDTMKVKMQTFPDLYRGLTDCCLKTYSQVGFRGFYKGTSPALIANIAENSVLFMCYGFCQQVVRKVVGLDQQAKLSDLQNAAAGSFASAFAALVLCPTELVKCRLQTMYEMETSGKIAASQNTVWSVVKEIFRKDGPLGFYHGLSSTLLREVPGYFFFFGGYELSRSFFASGRSKDELGPVPLMLSGGFGGICLWLAVYPVDCIKSRIQVLSMTGKQTGLVRTFLSIVKNEGITALYSGLKPTMIRAFPANGALFLAYEYSRKLMMNQLEAW
With B2, in assay [2], the binding result is listed as “binds”.

B3: MRRF (protein, UniProt Q9D6S7 56-262)
chain: ATKKAKAKGKGQPQARVTVNRALVEDIISLEEVDEDMKSVVEALKDNFNKTLNIRTAPGSLDHITVVTADGKVALNQIGQISMKSPQVILVNMASFPECTAAAIKAIRESGMNLNPEVEGTLIRVPIPKVTREHREMLVKLAKQNTNKAKENLRKVRTNAMNKLKKSKDKTSEDTIRLIEKQISQMADDTVAELDQHLAAKTKELLG
As for B3, the binding result in assay [2] is “binds”.

B4: SLC25A20 (protein, UniProt Q9Z2Z6 1-301)
chain: MADEPKPISPFKNLLAGGFGGMCLVFVGHPLDTVKVRLQTQPPSLSGQPPMYSGTLDCFRKTLMREGITGLYRGMAAPIIGVTPMFAVCFFGFGLGKKLQQKSPEDELSYPQLFTAGMLSGVFTTGIMTPGERIKCLLQIQASSGENKYSGTLDCAKKLYQEFGIRGFYKGTVLTLMRDVPASGMYFMTYEWLKNLFTPEGKSVSDLSVPRILVAGGFAGIFNWAVAIPPDVLKSRFQTAPPGKYPNGFRDVLRELIREEGVTSLYKGFNAVMIRAFPANAACFLGFEIAMKFLNWIAPNL
As for B4, the binding result in assay [2] is recorded as “binds”.

B5: TIMM8A1 (protein, UniProt Q9WVA2 1-97)
chain: MESSTSSSGSALGAVDPQLQHFIEVETQKQRFQQLVHQMTELCWEKCMDKPGPKLDSRAEACFVNCVERFIDTSQFILNRLEQTQKSKPVFSESLSD
As to B5, in assay [2], the binding entry is reported as “binds”.

B6: SLC25A11 (protein, UniProt Q9CR62 1-314)
chain: MAATASPGAGRMDGKPRTSPKSVKFLFGGLAGMGATVFVQPLDLVKNRMQLSGEGAKTREYKTSFHALTSILKTEGLKGIYTGLSAGLLRQATYTTTRLGIYTVLFERLTGADGTPPGFLLKALIGMTAGATGAFVGTPAEVALIRMTADGRLPADQRRGYKNVFNALVRIAREEGVPTLWRGCIPTMARAVVVNAAQLASYSQSKQFLLDSGYFSDNILCHFCASMISGLVTTAASMPVDIVKTRIQNMRMIDGKPEYKNGLDVLLKVVRYEGFFSLWKGFTPYYARLGPHTVLTFIFLEQMNKAYKRLFLSG
B6: the binding result in assay [2] is recorded as “binds”.

B7: ALDH1B1 (enzyme, UniProt Q9CZS1 20-519)
chain: SYSTAAALPNPIPNPEICYNKLFINNEWHDAVSKKTFPTVNPTTGEVIGHVAEGDRADVDLAVKAAREAFRLGSPWRRMDASERGRLLNRLADLVERDRVYLASLETLDNGKPFQESYVLDLDEVIKVYRYFAGWADKWHGKTIPMDGEHFCFTRHEPVGVCGQIIPWNFPLVMQGWKLAPALATGNTVVMKVAEQTPLSALYLASLIKEAGFPPGVVNIITGYGPTAGAAIAQHMDVDKVAFTGSTEVGHLIQKAAGESNLKRVTLELGGKSPSIVLADADMEHAVDQCHEALFFNMGQCCCAGSRTFVEESIYREFLERTVEKAKQRKVGNPFELDTQQGPQVDKEQFERILGYIRLGQKEGAKLLCGGERLGERGFFIKPTVFGDVQDGMRIAKEEIFGPVQPLFKFKKIEEVIQRANNTRYGLAAAVFTRDLDKAIYFTQALQAGTVWVNTYNIVTCHTPFGGFKESGNGRELGEDGLRAYTEVKTVTIKVPEKNS
On to B7, for which the binding result in assay [2] is “binds”.

B8: SLC25A22 (protein, UniProt Q9D6M3 1-323)
chain: MADKQISLPAKLINGGIAGLIGVTCVFPIDLAKTRLQNQQNGQRMYASMSDCLIKTIRSEGYFGMYRGAAVNLTLVTPEKAIKLAANDFFRHQLSKDGQKLTLPKEMLAGCGAGTCQVIVTTPMEMLKIQLQDAGRIAAQRKILAAQAQLSAQGGAQPSVEAPAPPRPTATQLTRDLLRNHGIAGLYKGLGATLLRDVPFSIVYFPLFANLNQLGRPSSEEKSPFYVSFLAGCVAGSAAAVAVNPCDVVKTRLQSLERGVNEDTYSGFLDCARKIWRHEGPSAFLKGAYCRALVIAPLFGIAQVVYFLGIAESLLGLLQEPQA
For B8, the binding result in assay [2] is reported as “binds”.
